The target in assay [1] is T1, recombinant E. coli-produced ectodomain protein from human MICA (human) (UniProt Q29983).
T1 sequence (looked up): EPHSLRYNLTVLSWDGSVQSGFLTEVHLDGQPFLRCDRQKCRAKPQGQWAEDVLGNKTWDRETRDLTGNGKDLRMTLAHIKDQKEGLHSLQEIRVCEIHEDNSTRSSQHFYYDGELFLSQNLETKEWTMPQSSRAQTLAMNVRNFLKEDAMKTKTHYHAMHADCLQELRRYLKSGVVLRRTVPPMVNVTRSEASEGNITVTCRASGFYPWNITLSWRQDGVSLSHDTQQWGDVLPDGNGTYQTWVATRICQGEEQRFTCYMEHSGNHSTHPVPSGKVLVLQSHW
Description: indirect ELISA, hybridoma supernatant on coated antigen. (ELISA stands for enzyme-linked immunosorbent assay.)

Assay [2] addresses T2, recombinant E. coli-produced ectodomain protein from human MICB (human) (UniProt Q29980).
T2 sequence (looked up): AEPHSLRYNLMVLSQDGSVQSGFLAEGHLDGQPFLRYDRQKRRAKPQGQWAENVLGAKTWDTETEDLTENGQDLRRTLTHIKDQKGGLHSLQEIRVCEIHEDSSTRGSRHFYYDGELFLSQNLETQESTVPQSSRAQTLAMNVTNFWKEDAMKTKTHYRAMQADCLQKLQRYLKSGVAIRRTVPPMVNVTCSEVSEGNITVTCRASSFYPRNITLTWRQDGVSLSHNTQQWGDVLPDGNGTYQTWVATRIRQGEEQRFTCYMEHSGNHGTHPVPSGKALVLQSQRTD
Described as above.

No constants are given. Whether binding was seen depends on the method and setting. Some binding calls cover weakened binding; strength is not graded here.

B1: antibody 8C7 (antibody, IgG1, V domains shown)
VH: QIQLVQSGPELKKPGETVKISCKASGYTFTNYGMNWVKQAPGKGLKWMGWINTNTGEPTYAEEFKGRFAFSLETSASTAYLQINNLKNEDTATYFCARSGGSSPFAYWGQGTLVTVSA
VL: DIVMTQAAPSVPVTPGESVSISCRSSKSLLQSNGNTFLYWFMQRPGQSPQLLIYRMSNLASGVPDRFSGSGSGTAFTLRISRVEAEDVGVYYCMQHLEYPFTFGGGTKLEIKR
notes: Mouse hybridoma monoclonal, IgG1 heavy chain and kappa light chain; Tested as hybridoma supernatant in ELISA and FACS; also called antibody from clone 8C7; hybridoma clone 8C7
Consider B1, for which the binding result in assay [1] and in assay [2] was “binds” each time.

B2: antibody 1F5 (antibody, IgG1, V domains shown)
VH: QIQLVQSGPELKKPGETVKISCKASGYTFTDYSVHWVKQAPGKGLKWMGWINTETGEPTYADDFKGRFAFSLETSASTAYLQINNLKNEDTATYFCARAGGNAFAYWGQGTLVTVSA
VL: DIVLTQSPASLAVSLGQRATISCRASKSVSTSGYSYMHWYQQKPGQPPKLLIYRASNLESGVPARFSGSGSGTDFTLNIHPVEEEDAATYYCQHSRELPLTFGAGTKLELKR
notes: Mouse hybridoma monoclonal, IgG1 heavy chain and kappa light chain; Tested as hybridoma supernatant in ELISA and FACS; also called IF5; antibody from clone 1F5
In the case of B2, the binding entry in assay [1] and in assay [2] was “binds” in each case.

These data come from patent US20160046689A1 (NOVELOGICS BIOTECHNOLOGY, published 2016).
